The list shows a part of the results. Values are raw readings; no control value is given beside them.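 First-pass screen: polymyxin B was added at a level that permeabilizes the Salmonella outer membrane while sparing the inner membrane. DMSO wells, with and without polymyxin B, defined maximum growth. Because plates differed from one another, each plate's data were ranked separately and the compounds with the lowest OD600 were carried forward as hits.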
Tested on: Salmonella enterica serovar Typhimurium SL1344
Test: bacterial growth OD600 after 18 h with compound and polymyxin B; higher = more bacterial growth (less inhibition)
Conditions: 50 µM, Mueller-Hinton broth

| Structure (SMILES) | bacterial growth OD600 (polymyxin B 0.75 µg/mL) | bacterial growth OD600 (polymyxin B 1 µg/mL) |
| --- | --- | --- |
| O=C(Nc1cccc(N2CCC(NCC(c3ccccc3)c3ccccc3)CC2)c1)c1ccncc1 | 0.762 | – |
| CCC1CN(CCNC(=O)CCCc2cccs2)Cc2cc(OC)ccc2O1 (stereo not given) | 0.755 | – |
| Cc1cc(C(=O)N(Cc2ccncc2)Cc2cccc(OCCc3ccc(F)cc3)c2)n(C)n1 | 0 | – |
| O=C(NC1CCCc2ccccc21)c1ccc(OC2CCN(C(=O)C3CC3)CC2)cc1 (stereo not given) | – | 1.19 |
| CCc1ccc(CN2CCC(Oc3ccc(C(=O)NCCOC)cc3Cl)CC2)o1 | – | 0.823 |
| COc1cc(C(=O)N(C)Cc2ccc(C)cc2)ccc1OC1CCN(C(C)=O)CC1 | – | 0.847 |
| O=C(Cc1ccc2c(c1)OCO2)N1CCOc2ccc(CN3CCN(c4ccccc4)CC3)cc2C1 | 0.743 | – |
| Cc1cc(C)c(C(=O)N2CCC3(CCCN(Cc4ccccc4F)C3)C2)c(=O)[nH]1 (stereo not given) | – | 0.899 |
| COc1cccc(-c2cccc(NC(=O)C3CCN(CCC(C)C)CC3)c2)c1 | – | 0.864 |
| O=C(C1CC1)N1CCC2(CCCN(Cc3ccc(F)cc3)C2=O)C1 (stereo not given) | – | 1.04 |
| CN(Cc1n[nH]c2c1CCCC2)C(=O)COc1ccc(N(C)Cc2ccc(F)cc2)nn1 | 0.916 | – |
| Cc1cccc(CN2CCCC3(CCN(C(=O)c4ccc(C)nc4)C3)C2=O)c1 (stereo not given) | – | 0.954 |
| CCn1ncc(CN2C[C@H]3OC(=O)N(Cc4ccccn4)[C@H]3C2)c1C | 0.812 | – |
| COc1ccc(C(=O)NC2CC2)c(OC2CCN(Cc3cnn(C)c3)CC2)c1 | – | 0.877 |
| COc1cc(CN2CCN(Cc3ccc(C)cc3)CC2CCO)cc(OC)c1 (stereo not given) | – | 0.857 |
| CN1CCCc2cc(CN3CCC4(CC3)CC4C(=O)NCc3ccco3)ccc21 (stereo not given) | 1.03 | – |
| O=C(CC(c1ccccc1)c1ccccc1Cl)N1CCOCC1 (stereo not given) | – | 0.698 |
| COCCN(Cc1cccnc1)C(Cc1ccccc1)C1CCN(Cc2ccc(F)c(OC)c2)CC1 (stereo not given) | 0.806 | – |
| CCCn1c(C)c(CC(=O)NCC2COCCO2)c2c1CC(C)(C)CC2=O (stereo not given) | – | 0.829 |
| C#Cc1cccc(C(=O)NCC2CC(Cc3ccc(F)cc3)=NO2)c1 (stereo not given) | 0.951 | – |
| CCC(C)CC(=O)N1CCc2c(C(=O)NCc3ccc4c(c3)OCO4)c(OC)cc(=O)n2CC1 (stereo not given) | 0.849 | – |
| COC(=O)CN(C)C(=O)C1CCC(=O)N(Cc2cccc(C(F)(F)F)c2)C1 (stereo not given) | – | 1.07 |
| CCOC(c1ccccc1)c1ccc2c(c1)CN(Cc1ccc(C#CC(C)(C)O)cc1)CCO2 (stereo not given) | 0.053 | – |
| CC(=O)c1cccc(OCc2cc(C(=O)N(C)Cc3ccncn3)no2)c1 | – | 1.09 |
| Cc1ncc2c(c1CNC(=O)/C=C/c1cccs1)CCN(C(=O)CCc1ccc3c(c1)OCO3)C2 | 0.784 | – |
| COc1ccc(CCN2CCC(CN(C)Cc3nc(C(C)C)cs3)CC2)cc1 | – | 1.13 |
| COc1ccc(-c2n[nH]cc2CNC(C)c2ccccc2Cl)cc1F (stereo not given) | – | 0.792 |
| O=C(NCC1CCC2(CCN(C(=O)c3ccc4c(c3)OCCO4)CC2)O1)C1CCCCC1 (stereo not given) | 0.919 | – |
| CCOC(=O)C1(Cc2cccc(F)c2)CCN(CCCn2cccn2)CC1 | – | 0.78 |
| COc1ccc(CN2C[C@@H]3C[C@@H](c4ccc(OC)cc4)N4CCC[C@@]34C2=O)cc1 | 0.819 | – |

Sorted by length of the SMILES (smallest number first): part of the list above

| Structure (SMILES) | bacterial growth OD600 (polymyxin B 0.75 µg/mL) | bacterial growth OD600 (polymyxin B 1 µg/mL) |
| --- | --- | --- |
| C#Cc1cccc(C(=O)NCC2CC(Cc3ccc(F)cc3)=NO2)c1 (stereo not given) | 0.951 | – |
| CCCn1c(C)c(CC(=O)NCC2COCCO2)c2c1CC(C)(C)CC2=O (stereo not given) | – | 0.829 |
| COc1ccc(C(=O)NC2CC2)c(OC2CCN(Cc3cnn(C)c3)CC2)c1 | – | 0.877 |
